Assay results taken from paper PMC4632185.
Results are given in words; binding and its absence hold for the method and conditions named. Binding seen in cells or lysates may run through a third protein. Binding can be weak; no strength is given. Where a sequence is shown, tags or fusion partners need not be part of it.

Chains of the proteins cited; added tags and fusions are not shown. Lines headed by an entry give the natural chain unless they say otherwise; changes in a name come on top.
UniProt Q8TDX7: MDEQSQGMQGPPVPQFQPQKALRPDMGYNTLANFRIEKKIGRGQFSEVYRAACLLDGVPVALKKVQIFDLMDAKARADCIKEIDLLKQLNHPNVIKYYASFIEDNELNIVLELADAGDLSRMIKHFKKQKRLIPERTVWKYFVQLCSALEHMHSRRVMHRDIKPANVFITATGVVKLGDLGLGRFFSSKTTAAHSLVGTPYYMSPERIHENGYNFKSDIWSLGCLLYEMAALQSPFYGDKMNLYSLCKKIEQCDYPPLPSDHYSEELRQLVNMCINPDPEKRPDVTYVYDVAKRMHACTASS

Target: T1, GST-Nek9-CTD (aa 726–979) (human) (UniProt Q8TD19)
T1 sequence: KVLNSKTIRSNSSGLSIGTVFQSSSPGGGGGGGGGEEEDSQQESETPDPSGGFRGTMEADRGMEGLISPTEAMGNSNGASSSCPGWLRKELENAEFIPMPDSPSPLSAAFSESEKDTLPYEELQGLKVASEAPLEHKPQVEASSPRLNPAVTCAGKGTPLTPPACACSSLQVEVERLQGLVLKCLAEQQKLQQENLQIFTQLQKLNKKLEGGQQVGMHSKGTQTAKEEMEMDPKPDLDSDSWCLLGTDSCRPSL
Assay: pull-down; GST co-precipitation: 100 μg GST-Nek9 protein immobilised on glutathione sepharose-4B beads, incubated with 100 μg Nek7 in 500 μl for 1 h at 4 °C; 50 mM HEPES pH 7.5, 300 mM NaCl, 5% glycerol, 5 mM dithiothreitol, 0.05% Tween-20; Coomassie staining or immunoblot with α-His6; both …

Nek7 with a mutation of Arg155 (from UniProt Q8TDX7) (enzyme)
binding: binds
